In all, about 220,000 compounds went through this assay and about 770 (0.35%) were called active. Inconclusive means that the source gave no clear call. Such entries were picked first, then a sample of the others. Cut-off read from the data, not from the text of the source: active = binding response below about 49% or above about 150%; inconclusive = no clear call, values can overlap the other calls; inactive = in between.
Biological target: Guanine nucleotide-binding protein G(o) subunit alpha (Homo sapiens) (UniProt P09471)
Assay: RGS7-Galphao binding modulators, primary screen, biochemical, multiplexed bead flow cytometry (AID 1439);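 note: fluorescent Galphao held in activated GDP-AlF4 state binding bead-coupled RGS7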
Settings: at 10 µM, actives lie on both sides

The chains behind the UniProt entries cited, without tags or fusion partners.
UniProt P09471, whole entry, looked up: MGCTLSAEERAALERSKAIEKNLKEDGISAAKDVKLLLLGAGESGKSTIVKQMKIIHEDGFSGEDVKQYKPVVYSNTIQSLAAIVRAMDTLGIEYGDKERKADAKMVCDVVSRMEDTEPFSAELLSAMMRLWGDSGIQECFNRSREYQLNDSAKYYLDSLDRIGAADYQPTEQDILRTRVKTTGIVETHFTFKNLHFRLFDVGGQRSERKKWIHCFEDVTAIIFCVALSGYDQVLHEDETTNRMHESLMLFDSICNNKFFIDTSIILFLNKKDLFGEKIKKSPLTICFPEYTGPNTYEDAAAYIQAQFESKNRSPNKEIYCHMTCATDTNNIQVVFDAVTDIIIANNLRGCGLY

Row | Compound | binding response (% of control)
1 | C/C=C/c1ccc(OCC(=O)OCC(=O)NC2CC2)c(OC)c1 | inconclusive: 110%
2 | CCCCNC(=O)C1CCC(CNc2c(N3CCC(C)CC3)c(=O)c2=O)CC1 (stereo unspecified) | inconclusive: 85.8%
3 | COc1ccc(-c2cn[nH]c2-c2ccc(OCc3ccccc3)cc2O)cc1 | inconclusive: 143%
4 | CCCC(=O)NCn1nnc(-c2ccc(Cl)cc2)n1 | active: 295% [activator]
5 | Cc1cccc(NC(=O)C2CC(=O)n3ncnc3N2)c1 (stereo unspecified) | inconclusive: 120%
6 | O=C(O)CCC(=O)Nc1ccc(-n2ccc(C(F)(F)F)n2)cc1 | inconclusive: 187%
7 | Cc1ccc(C)n1-c1ccc(C(=O)O)cc1 | active: 39.3%
8 | CCCNC(=O)Cn1cnc([N+](=O)[O-])n1 | inactive: 101%
9 | O=C(/C=C/c1cccs1)Nc1ccc(S(=O)(=O)Nc2ncccn2)cc1 | inconclusive: 107%
10 | CN(C(=O)/C=C/c1cnc2ccccc2c1)C1CCCCC1 | inconclusive: 55.7%
11 | COc1ccccc1C(CCN(Cc1ccccc1)C(C)=O)c1ccco1 (stereo unspecified) | inconclusive: 132%
12 | O=C1CC(c2ccccc2)n2nc(NC(=O)c3ccccn3)nc2N1 (stereo unspecified) | inactive: 103%
13 | N=c1n(CCCOc2ccccc2Cl)c2ccccc2n1CC(N)=O | inconclusive: 111%
14 | CCCNC(=O)C1CCN(c2cc(-c3ccccc3)nc3ncnn23)CC1 | inactive: 103%
15 | O=C(CNC(=O)Cc1ccccc1)NCC(=O)OCc1ccc(C(=O)c2ccccc2)cc1 | inactive: 93.8%
16 | Nc1nnc(Cc2cccc(Br)c2)s1 | inconclusive: 115%
17 | COc1ccc(/C=N/NC(=O)c2[nH]ncc2Br)c(OC)c1 | inactive: 95.4%
18 | O=c1cc(N2CCN(c3ccccc3Cl)CC2)[nH]c(=O)n1Cc1ccc(F)cc1 | inconclusive: 139%
19 | CCCCNC(=O)Nc1ccccc1CC | inconclusive: 65%
20 | CCN(CC)CCN1C(=O)C(=O)/C(=C(/O)c2ccc3c(c2)CC(C)O3)C1c1ccc(OC)cc1 (stereo unspecified) | inconclusive: 63.2%
21 | COC(=O)c1cc2n(n1)CCCNC2=O | inactive: 106%
22 | CCCCC1=CC2=CC(=O)C(C)(OC(=O)CC)C(=O)C2=CN1Cc1ccc(OC)cc1 (stereo unspecified) | inconclusive: 120%
23 | CCc1ccccc1NC(=S)N(CCCN(C)C)Cc1cc2cc3c(cc2[nH]c1=O)OCO3 | inactive: 91.8%

Row | Compound | binding response (% of control)
24 | CN(C(=O)CSc1ncnc2sccc12)c1c(N)n(Cc2ccccc2)c(=O)[nH]c1=O | inconclusive: 254%
25 | Cc1ccc(OCC(=O)N2N=C(c3ccc(Cl)cc3)CC2c2ccco2)c([N+](=O)[O-])n1 (stereo unspecified) | inconclusive: 94.6%
26 | O=C(CCn1cnc2ccccc2c1=O)Nc1cccc(Cl)c1Cl | inconclusive: 125%
27 | COC(=O)CCC(=O)OC1(C)C(=O)C=C2C=C(C3CC3)N(C(CO)CO)C=C2C1=O (stereo unspecified) | inconclusive: 114%
28 | CC(C)(C)c1ccc(C(=O)Oc2ccccc2CCC(=O)O)cc1 | inconclusive: 76.7%
29 | CC(C)Cn1c(=O)c2c(nc3n2CCCN3CCc2ccccc2)n(C)c1=O | inactive: 96.2%
30 | NC(=O)CSc1nnc(-c2cccs2)n1Cc1ccco1 | inconclusive: 167%
31 | O=C(NCc1ccccc1)NCc1cccs1 | inactive: 101%
32 | CC(=O)c1ccc(OCCCC(=O)NC(C)c2ccc(S(N)(=O)=O)cc2)cc1 (stereo unspecified) | inconclusive: 105%
33 | CSc1nnnn1-c1c(C)cccc1C | inconclusive: 92.6%
34 | C/C(=N/NC(=O)c1ccc2c(c1)OCCO2)c1ccc([N+](=O)[O-])cc1 | inconclusive: -411%
35 | COC(=O)C1=C(C(=O)OC)[C@@H]2N(C)c3ccccc3[C@@]23C[C@@H](C(=O)OC)N(C(C)=O)C3=N1 | inconclusive: 101%
36 | O=C1CNC(=O)/C1=C/c1ccc(Br)cc1 | inconclusive: 131%
37 | Cc1ccc(NCCC(=O)c2ccccc2)cc1Cl | inconclusive: 105%
38 | O=C(COc1ccccc1N1C(=O)C2C3C=CC(C3)C2C1=O)c1ccccc1 (stereo unspecified) | inconclusive: 127%
39 | C[C@@H]1CC=C[C@H]2[C@H]1C(=O)N(Cc1ccccc1)[C@H]2c1ccc(C(F)(F)F)cc1 | inconclusive: 97.7%
40 | CCOC(=O)c1c(NC(=O)CNC2CCCc3ccccc32)sc(C(N)=O)c1C (stereo unspecified) | inconclusive: 83.5%
41 | O=C(O)C1CCc2sc3[nH]c(=S)n(-c4ccccc4)c(=O)c3c21 (stereo unspecified) | inconclusive: -56%
42 | CCCCNCc1ccc(OCc2ccc(Cl)nc2)c(OC)c1 | inconclusive: 105%
43 | O=C(c1ccc([N+](=O)[O-])cc1)N1CCN(c2cccc3[nH]ccc23)CC1 | inconclusive: 415%
44 | O=C(COC(=O)Cn1cnc2ccccc2c1=O)NCc1ccccc1Cl | inconclusive: 95.7%
45 | CC1=Nc2ccccc2N=C(NC(=O)CN2CCN(c3ccc(F)cc3)CC2)C1c1ccccc1 (stereo unspecified) | inconclusive: 77.9%
46 | O=C(Nc1cc(F)c(Br)cc1F)c1ccc(Cl)cc1 | inconclusive: 102%

Reprinted from the entries so far (7 entries):
Row | Compound | binding response (% of control)
25 | Cc1ccc(OCC(=O)N2N=C(c3ccc(Cl)cc3)CC2c2ccco2)c([N+](=O)[O-])n1 (stereo unspecified) | inconclusive: 94.6%
26 | O=C(CCn1cnc2ccccc2c1=O)Nc1cccc(Cl)c1Cl | inconclusive: 125%
27 | COC(=O)CCC(=O)OC1(C)C(=O)C=C2C=C(C3CC3)N(C(CO)CO)C=C2C1=O (stereo unspecified) | inconclusive: 114%
28 | CC(C)(C)c1ccc(C(=O)Oc2ccccc2CCC(=O)O)cc1 | inconclusive: 76.7%
29 | CC(C)Cn1c(=O)c2c(nc3n2CCCN3CCc2ccccc2)n(C)c1=O | inactive: 96.2%
30 | NC(=O)CSc1nnc(-c2cccs2)n1Cc1ccco1 | inconclusive: 167%
31 | O=C(NCc1ccccc1)NCc1cccs1 | inactive: 101%

Additional records

Row | Compound | binding response (% of control)
47 | NC(=O)COC(=O)c1cc(S(=O)(=O)N2CCN(c3ccccc3)CC2)ccc1Cl | inconclusive: 98.4%
48 | Cc1ccc(OCCCCn2cnc3ccccc32)cc1 | inconclusive: 78.5%
49 | N#CCc1nc2ccc(S(=O)(=O)N3CCOCC3)cc2s1 | inconclusive: 37.4%
50 | Cc1cc(C)n(CCNC(=O)CC2C(=O)NCCN2Cc2ccccc2C(F)(F)F)n1 (stereo unspecified) | inactive: 97.1%
51 | COC(=O)C(C(=O)OC)c1ccc(N)cc1 | inconclusive: 140%
52 | CC(C)OC(=O)CSc1nnc2c3ccccc3n(C)c2n1 | inconclusive: 111%
53 | CCNC(=S)N(Cc1cccs1)Cc1cc2cc(OCC)ccc2[nH]c1=O | inactive: 131%
54 | N/C(COc1cc(Cl)cc(Cl)c1)=N\O | inconclusive: 87.3%
55 | CCOC(=O)c1c(CC(C)C)csc1/N=C/C1=C(O)CCCC1=O | inconclusive: 97.6%
56 | CC1CCc2c(sc(NC(=O)Cn3nc(C(=O)O)c4ccccc4c3=O)c2C#N)C1 (stereo unspecified) | inconclusive: 151%
57 | O=C(N/N=C/c1cccnc1)c1cccc(S(=O)(=O)Nc2cccc(Cl)c2)c1 | inconclusive: 107%
58 | COC(=O)c1cc(S(=O)(=O)N2CCC(C(N)=O)CC2)oc1C | inconclusive: 134%
59 | COc1cc(O)c(CC=C(C)C)c(O)c1C(=O)CCc1ccc(O)cc1 | inconclusive: 65.4%
60 | CSc1nccc(-c2c(-c3ccc(Cl)cc3)noc2C)n1 | inconclusive: 84.8%
61 | O=C(CSc1nnc(-c2ccccc2)c2ccccc12)NCC1CCCO1 (stereo unspecified) | inconclusive: 92.9%
62 | Cc1cc(-c2nnc(SCC(=O)Nc3nc(-c4ccc(Cl)cc4)cs3)o2)no1 | inconclusive: 65.2%
63 | CCCOc1ccc(N2C(=O)C/C(=C\c3ccccc3)C2=O)cc1 | inconclusive: 79.7%
64 | NS(=O)(=O)c1ccc(NC(=O)N[C@@H](Cc2ccccc2)C(=O)O)cc1 | inactive: 102%
65 | O=C(CCCCCn1nnc2ccccc2c1=O)N[C@H](C(=O)O)c1ccccc1 | inconclusive: 112%
66 | CCCCCCCCNC1=CC(=O)CC(C)(C)C1 | inconclusive: 103%
67 | C/C(CC1CC2=C(CC1(C)C)C(C)(C)CCC2)=N\NC(N)=S (stereo unspecified) | inactive: 103%
68 | CC(=O)c1cc(C#N)c(SCC(=O)OC(C)C)nc1C | inactive: 96.7%
69 | COc1cc(CCC(=O)Nc2ccc(C)c(S(=O)(=O)N(C)C)c2)cc(OC)c1OC | inactive: 104%

Row | Compound | binding response (% of control)
70 | O=C(Nc1ccc(S(=O)(=O)Nc2ccccn2)cc1)C(F)(F)F | inactive: 92%
71 | O=C(Oc1c(Cl)cc(Cl)c2cccnc12)c1ccco1 | inactive: 101%
72 | CC(=O)Nc1ccc(C)c([N+](=O)[O-])c1 | inactive: 99.8%
73 | COc1ccc2[nH]c(=O)c(CN(C(=O)c3ccco3)C(C)C)cc2c1 | inconclusive: 109%
74 | Cc1noc(C)c1COc1ccc(C(=O)Nc2cccnc2)cc1 | inconclusive: 70.7%
75 | C/C(=N\NC(=O)c1ccc(NS(=O)(=O)c2cccs2)cc1)c1ccc2c(c1)OCO2 | inconclusive: 89.6%
76 | NC(=O)c1ccccc1OCC(=O)c1ccc(Cl)cc1 | inconclusive: 106%
77 | Cc1ccc(Nc2nc(C(=O)NCC3CCCO3)cs2)cc1 (stereo unspecified) | inconclusive: 102%
78 | COc1ccc(CN(Cc2cccn2C)S(=O)(=O)c2ccc(F)cc2)cc1 | inconclusive: 120%
79 | Cn1cc(S(=O)(=O)N2CCN(c3cccc(Cl)c3)CC2)c(=O)n(C)c1=O | inconclusive: 101%
80 | C/C(=N/NC(=O)CNC(=O)c1cccs1)c1ccco1 | inconclusive: 265%
81 | Cc1cc(NC(=O)CSc2nnc(-c3cccnc3)n2Cc2ccccc2)no1 | inconclusive: 81.8%
82 | N#Cc1c(Nc2ccc(Cl)cc2)s[nH]c1=O | inconclusive: 111%
83 | O=C(CCCN1C(=O)c2ccccc2C1=O)NCCCn1ccnc1 | inconclusive: 96%
84 | Cc1ccc(NC(=O)CSc2ccc(-c3ccc4c(c3)OCO4)nn2)cc1F | inactive: 102%
85 | COc1ccc(C(=O)/C=C/NCc2ccc(F)cc2)cc1OC | inconclusive: 135%
86 | CCOc1ccc(-c2nnc3ccc(SCC(=O)Nc4cc(C)on4)nn23)cc1 | inactive: 98.6%
87 | CCN1CCN(Cc2ccc(NC(=O)c3ccc(C)c(NC(=O)c4cccc5[nH]ccc45)c3)cc2C(F)(F)F)CC1 | inconclusive: 151%
88 | CCN(CC)c1ccc(N2C(=O)/C(=C/c3ccccn3)SC2=S)cc1 | inconclusive: 28.4%
89 | Cc1c(NC(=O)c2cc(-c3ccccc3O)on2)c(=O)n(-c2ccccc2)n1C | inconclusive: 109%
90 | CCc1cccc(CC)c1NC(=O)COC(=O)c1cccc(S(=O)(=O)N2CCc3ccccc3C2)c1 | inactive: 98%
91 | CCOCCc1c(O)nc(SCC)[nH]c1=O | inconclusive: 101%

Source: PubChem BioAssay AID1439 (NMMLSC, 2008)
